The target of this experiment is M/Hu HincII chimeric TNFα (human 91-157) (mouse; human) (UniProt P06804). Put plainly: receptor-Fc binding to TNFα constructs.

Protein sequences, listed by entry. Tags and fused reporters are not part of them. Lines headed by an entry give the natural chain unless they say otherwise; changes in a name come on top. Residues count along the entry.
UniProt P06804: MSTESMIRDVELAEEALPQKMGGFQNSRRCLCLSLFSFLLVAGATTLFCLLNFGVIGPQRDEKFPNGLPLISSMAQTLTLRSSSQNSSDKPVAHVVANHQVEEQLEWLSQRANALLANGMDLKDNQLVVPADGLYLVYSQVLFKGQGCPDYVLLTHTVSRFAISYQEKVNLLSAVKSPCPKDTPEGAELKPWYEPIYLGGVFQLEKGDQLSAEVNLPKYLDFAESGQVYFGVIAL
UniProt P19438, residues 30-211: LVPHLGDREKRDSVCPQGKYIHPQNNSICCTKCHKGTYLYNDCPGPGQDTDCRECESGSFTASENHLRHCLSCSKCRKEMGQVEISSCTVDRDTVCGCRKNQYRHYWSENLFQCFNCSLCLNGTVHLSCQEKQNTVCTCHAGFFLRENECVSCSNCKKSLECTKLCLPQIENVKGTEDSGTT
UniProt P20333, residues 23-257: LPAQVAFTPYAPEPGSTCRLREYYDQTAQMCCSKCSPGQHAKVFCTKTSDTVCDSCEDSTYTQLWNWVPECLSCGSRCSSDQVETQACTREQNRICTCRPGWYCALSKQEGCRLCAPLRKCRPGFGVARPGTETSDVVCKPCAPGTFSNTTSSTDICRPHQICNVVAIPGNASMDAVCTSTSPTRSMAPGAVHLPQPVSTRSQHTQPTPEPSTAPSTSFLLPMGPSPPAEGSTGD

Results are given in words; binding and its absence hold for the method and conditions named. Some binding calls cover weakened binding; strength is not graded here.

The text below walks through data of patent publication US20050049402A1.

In the case of “p55-hFc (R&D) (from UniProt P19438 30-211) (Fc fusion)”, the binding result is “binds”.

As for “p75-hFc construct (R&D Systems) (from UniProt P20333 23-257) (Fc fusion)”, the binding entry is “binds”.
